Assay results taken from patent US20200030388A1, “COMPOSITIONS FOR MODIFYING GUT MICROBIOTA” (priority 2017, published 2020).
At least one compound was matched to its structure with a doubt left.

Tests used:
[1] = test system: PPARγ, C/EBPα, p-HSL, p-PKA substrate, CPT-1A, PPARα; assay: Western blot of perigonadal adipose tissue (Example 4); type: in vivo, mouse; details: compared to the HFD group
[2] = test system: Gut Microbiota in HFD-Fed Mice; assay: Gut microbiota classification by next generation sequencing (Example 4); type: in vivo, mouse; details: for F/B ratio: FIGS. 23B, 23C
Experimental: Total DNA was extracted from fresh fecal samples by using the innuPREP Stool DNA kit (Analytik Jena AG, Jena, Germany) according to the manufacturer's instructions. According to the concentration, DNA was diluted to 1 ng μ L^−1 using sterile water. 6SrRNA/18SrRNA/ITS genes of distinct region (16SV4/16SV3/16SV3-V4/16SV4-V5, 18S V4/18S V9, ITS1/ITS2, Arc V4) were amplified using a specific primer (e.g. 16SV4: 515F-806R, 18S V4: 528F-706R, and 18S V9: 1380F-1510R) with a barcode. All PCR reactions were carried out using a Phusion® High-Fidelity PCR master mix (New England Biolabs, Ipswich, Mass., USA). The PCR products were mixed in ratios of equal density. Then, the mixed PCR products were purified using a Qiagen gel extraction kit (Qiagen, Hilden, Germany). Sequencing libraries were generated using the TruSeq® DNA PCR-free sample preparation kit (Illumina, San Diego, Calif., USA) following the manufacturer's recommendations, and index codes were added. The library quality was assessed using the Qubit@ 2.0 Fluorometer (Thermo Scientific) and Agilent Bioanalyzer 2100 system. Lastly, the library was sequenced using an Illumina HiSeq 2500 platform, and 250 bp paired-end reads were generated. The classification was based on the Greengenes database (https://greengenes.lbl.gov/).

[3] = test system: HFD-Induced Obese Mice (C57BL/6); assay: GAR, FOR, LMIX, HMIX in HFD-induced obese mice, 12 weeks (Example 4); details: for adipocyte size of perigonadal fat: H&E, FIG. 21E; for weight of mesenteric fat: FIG. 21B
[4] = test system: Mouse 3T3-L1 pre-adipocytes; assay: Adipogenesis inhibition in 3T3-L1 cells, Oil red O staining; type: cell-based; details: 3T3-L1, Oil red O, FIG. 1
Experimental: Garcinol (20%) stock of 10 mg/ml was prepared in DMSO and filtered through 0.2 micron syringe filter. Stock was diluted 1000 times in DMEM to get 10 μg/ml final concentration and serially diluted. Insulin (Hi Media) was bought as a solution at a concentration of 20 mg/ml. This was diluted to 1 μg/ml in DMEM. IBMX-(Sigma)—Stock of 5 mM was prepared in DMEM, and diluted 10 times to be used at a final concentration of 0.5 mM. Dexamethasone (Sigma)—A stock of […] was prepared in DMEM and diluted 40 times to get a final concentration of 0.25 μM
Mouse 3T3-L1 pre-adipocytes were cultured in DMEM containing 25 mM glucose with 10% heat-inactivated fetal calf serum with antibiotics at 37° C. and 5% CO2. When the cells were 70-80% confluent, they were trypsinized, washed and seeded in 6 well plates at a density of 2×10^6 cells per well. Cells were induced to differentiate 2 d after reaching confluence (day 0), by supplementing DMEM media containing 10% Fetal Bovine Serum (FBS) along with 1 μg/mL insulin, 0.25 μM dexamethasone, 0.5 mM 1-methyl-3-isobutyl-xanthine (IBMX) and different concentrations of Garcinol (20%). From day 3 until day 7, cells were maintained in progression media supplemented with 1 μg/mL insulin and different concentrations of Garcinol (20%). […] Quantification for amount of triglycerides accumulated in adipocytes was done by Oil red O staining.

[5] = test system: PPARγ, cEBPα, FAS, AP2, UCP1, PRDM16, PGC1α, BMP7 expression in 3T3-L1; assay: Quantitative RT-PCR of adipogenesis and brown fat specific genes in 3T3-L1 cells; type: cell-based, mouse
[6] = test system: High Fat Diet Induced Obesity in C57 Mice; assay: High fat diet induced obesity in C57 mice, 16 weeks (Example 1); type: in vivo, mouse
Experimental: C57/BL6 mice, 6-8 weeks of age and 8 animals/Group (4 Male and 4 Female) were used for the study. Animals were housed under standard laboratory conditions, air-conditioned with adequate fresh air supply (12-15 Air changes per hour), room temperature 20.2-23.5° C. and relative humidity 58-64% with 12 hours fluorescent light and 12 hours dark cycle. The temperature and relative humidity was recorded once daily.
The animals were fed with Normal diet (9 kcal/day) and High fat diet (50 kcal/day) throughout the acclimatization and experimental period.
The design of the study groups is depicted in table 2.
Body weight of the animals was recorded in all the days of experimental period. At the end of the experimental period, the animals were sacrificed by cervical dislocation. Blood was collected and Serum was separated by centrifugation and used for the analysis of biochemical parameters. The organs such as Liver Kidney, Spleen and Pancreas and Fat Tissues (Retroperitoneal, Peri-gonadal and Mesenteric) were dissected out and washed in phosphate buffered saline.
The following parameters were measured in the above groups: • Measurement of Body weight • Determination of Organ Weight • Estimation of Cholesterol (Zak et al., ([…]) A new method for the determination of serum cholesterol. J Clin Endocrinol Metab., 94(7), 2215-2220) • Estimation of Triglycerides (Foster L. B and Dunn R. T. (1973) Stable reagents for determination of serum triglycerides by a colorimetric Hantzsch condensation method. Clin Chem. 196, 338-340). • Estimation of HDL Cholesterol (Burstein et al., (1970). Determination of HDL cholesterol. J. lipid Res., 11, 583). • Determination of LDL and VLDL (Friedewald et al., (1972) Estimation of the concentration of Low Density Lipoprotein cholesterol in plasma without use of preparative centrifuge. J. Clin Chem.; 18:499).

[7] = test system: adipogenesis and brown fat specific genes in mouse fat pad; assay: Gene expression studies in mouse fat pad (Example 1); type: in vivo; details: HFD-fed mice
[8] = test system: HFD-induced Obesity in C57BL/6 mice; assay: HFD-induced obesity in C57BL/6 mice, 13 weeks (Example 2); type: in vivo, mouse
From the text: After one week of acclimation, animals were randomly distributed into normal diet (ND, 15% energy as fat), HFD (50% energy as fat), and HFD with 0.1% or 0.5% garcinol groups of eight mice in each group for 13 weeks. The experimental diets were modified from the Purina 5001 diet (LabDiet, PMI Nutrition International, St. Louis, Mo., USA). The animals had ad libitum access to food and water. Food cups were replenished with a fresh diet every day. […] Upon termination of the study, the animals were sacrificed by CO2 asphyxiation and dissected, and the weights of their whole bodies and selected tissues, including the liver, kidney, spleen, adipose tissues (perigonadal, retroperitoneal, and mesenteric fat) and serum were immediately collected, weighed, and photographed.
Sections of 3-5 μm in thickness were cut, deparaffinized, rehydrated, stained with H&E, and subjected to photomicroscopic assessment. Adipocyte size was determined using Image J software (Rasband, W. S., ImageJ, U.S. National Institutes of Health, Bethesda, Md., USA).
Blood samples were collected from the left ventricle under anesthesia. The samples were mixed in 10 μL of heparin sodium and centrifuged at 3500 rpm and 4° C. for 10 min. The plasma was then stored at −80° C. until use. Glutamic-pyruvic transaminase (GPT), total cholesterol (TC), TG, high-density lipoprotein (HDL), and low-density lipoprotein (LDL) levels were analyzed at the National Laboratory Animal Center, NLAC (Taipei, Taiwan) on a 7080 Biochemical Analyzer (Hitachi, Tokyo, Japan) according to the manufacturer's instructions.

[9] = test system: gut microbiota of HFD-fed mice; assay: 16S rDNA gene sequencing of fecal microbiota (Example 2); type: in vivo, mouse
[10] = test system: p-AMPK (Thr172), AMPK, Pref-1, SREBP-1 and PPARγ; assay: Western blot of perigonadal adipose tissue (Example 2); type: in vivo, mouse
[11] = test system: HFD-fed C57BL/6 male mice; assay: Garcinol versus garcinol blend in HFD-fed C57BL/6 mice, 16 weeks (Example 3); type: in vivo, mouse; details: 0.5% garcinol compared to the garcinol blend, FIG. 20
Experimental: The present invention studied the anti-obesity effects of garcinol compared to a composition comprising garcinol, pterostilbene and anthocyanin (garcinol blend (GB) in mammals. The study was conducted in vivo on 5 weeks old C57BL/6 male mice. A total of 42 mice were involved in this study with 6 groups of 7 mice each. The groups were divided as in table 8.
The high fat diet (HFD) groups were fed 45% high fat diet for 16 weeks for the induction of obesity and concurrently administered the test substance as indicated in the aforesaid table. The normal group was fed with normal diet for 16 weeks.
Body weight was monitored weekly, and the average body weight of each group (n=7) was expressed as the means±SE.

C=C[C@@]1(C)CC(=O)[C@]2(O)[C@@]3(C)[C@@H](O)CCC(C)(C)[C@@H]3[C@H](O)[C@H](OC(C)=O)[C@@]2(C)O1 [FOR, Forskolin]
p-HSL and p-PKA substrate protein expression [1]: up regulated
protein expression of CPT-1A [1]: significantly increased
protein expression of PPARα [1]: increased
protein expression of PPARγ and C/EBPα [1]: except for the FOR group
abundance of Bacteroides (genus level) ([2]; than the HFD group, FIG. 24): more abundance
abundance of Bacteroides caccae (species level) ([2]; than the HFD group, FIG. 24): more abundance
F/B ratio ([2]; than the HFD group): significantly lower
adipocyte size of perigonadal fat [3]: significantly decreased
liver fat accumulation ([3]; compared with HFD group, FIG. 21F): significant reduction
weight of perigonadal and retroperitoneal fat ([3]; compared with the HFD group, FIG. 21A, 21C): significantly decreased
weight of mesenteric fat ([3]; compared with the HFD group): significantly decreased
body fat ratio ([3]; than other groups, FIG. 21D): lower

C=C(C)[C@@H](CC=C(C)C)C[C@@]12C[C@@H](CC=C(C)C)C(C)(C)[C@@](CC=C(C)C)(C(=O)C(C(=O)c3ccc(O)c(O)c3)=C1O)C2=O [garcinol]
lipid accumulation in adipocytes [4]: dose dependent reduction
PPARγ expression and expression of cEBPα, FAS and AP2 ([5]; 3T3-L1, FIG. 2): dose expended reduction
expression of UCP1, PRDM16, PGC1α and BMP7 ([5]; 3T3-L1, dose dependent, FIG. 3): increased
HDL levels in the serum ([6]; HFD co administered with garcinol, FIG. 10c): increased
total cholesterol, triglycerides, LDL and VLDL in the serum ([6]; HFD co administered with garcinol, FIGS. 10a, 10b): significantly reduced
weight gain ([6]; HFD-fed animals, 120 days, dose dependant, FIGS. 4a, 4b): inhibited
fat accumulation in the different fat pad regions ([6]; HFD-fed mice, FIG. 6): significantly reduced
Percentage of Visceral fat ([6]; maximum effect at 10 mg/kg body weight, FIG. 7): reduced
expression of Brown fat specific genes in the mice fat pad regions ([7]; FIG. 9): effectively increased
expression of PPARγ, AP2, FAS, RESISTIN and LEPTIN in the fat pad regions ([7]; FIGS. 8a, 8b): significantly reducted
body weight gain ([8]; 0.5% garcinol + HFD, no difference from ND group): inhibited
adipocyte size in perigonadal adipose tissue ([8]; H&E staining, versus HFD, FIG. 15): significantly reduced
body weight ([8]; diet with 0.1 and 0.5% garcinol, HFD, 13 weeks, dose-dependent): reduced
microbial communities (PCA clustering) ([9]; 0.5% garcinol, HFD): closely clustered to that of ND mice
Verrucomicrobia communities ([9]; HFD-fed mice, FIG. 16b): rise in number
F/B ratio (Firmicutes-to-Bacteroidetes ratio) ([9]; HFD-fed mice, by elevating Bacteroidetes, FIG. 16a): reduced
numbers of Akkermansia muciniphila, Bacteroides stercorirosoris, and Bacteroides xylanisolvens ([9]; HFD-fed mice, heatmap): increased
Parabacteroides, Bacteroides, and Akkermansia genus ([9]; garcinol-fed mice on HFD): dramatically rose in number
Blautia communities ([9]; high- and low-dose garcinol, versus HFD): dramatically decreased
AMPK protein in white adipose tissue ([10]; 0.1% garcinol, versus HFD): increased
AMPK protein or p-AMPK protein levels ([10]; 0.5% garcinol, HFD): did not elevate
protein level of Pref-1 in epididymal adipose tissue ([10]; HFD-fed mice): increased
weights of perigonadal, retroperitoneal and mesenteric adipose tissues [11]: significantly reduced
p-HSL and p-PKA substrate protein expression [1]: no significant difference
protein expression of CPT-1A [1]: significantly increased
protein expression of PPARα [1]: increased
protein expression of PPARγ and C/EBPα [1]: significantly decreased
abundance of rumonococcaceae_UCG-001 and Akkermansia (genus level) ([2]; heat map, FIG. 23E): demonstrated abundance
F/B ratio ([2]; than the HFD group): significantly lower
adipocyte size of perigonadal fat [3]: significantly decreased
weight of mesenteric fat ([3]; compared with the HFD group): significantly decreased
